The experiment in a line: qHTS Assay for Modulators of Lamin A Splicing. Conditions: HeLa LMNA splicing GFP/RFP minigene ratio, 48 h. An outline of the steps: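 S3 HeLa cells stably expressing lamin A-EGFP splicing minigene plus DsRed2, 600 cells/well, 48 h compound exposure at 37C. Laser-scanning cytometry; analysed as GFP (500-530 nm)/RFP (575-640 nm) total intensity ratio; 0.5% DMSO vehicle.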
In general terms: Quantitative high-throughput screening tests each substance at several concentrations.

[1] abbreviates: measured here: GFP splicing reporter channel.
Where [2] appears, read: measured here: RFP viability control channel.

Structures are written as SMILES. Where “and” joins values, the source holds several entries; their conditions need not be identical. Identical values can stand only once. Some of the results follow. The main result of the screen is listed elsewhere. These columns were measured beside it and carry no call. Most of these compounds were active or inconclusive in the main read-out, so they are no random draw. Potencies come from curve fits of mixed quality, noted in brackets.

The term AC50 denotes the concentration giving half of the maximal activity seen.

Regarding `COc1ccc(CNc2ccnc(-c3ccc(C(=O)N(C)C)cc3)n2)c(OC)c1`, the concentration at half-maximal activity (AC50) under setting [1] was 25.1 µM [falling, partial curve, poor fit].

In the case of `O=C(c1cc(-c2cccs2)on1)N1CCc2ccccc2C1`, the AC50 under setting [2] was 35.5 µM [rising, single point].

As for `Clc1ccc2[nH]c3c(c2c1)CCc1cn[nH]c1-3`, the half-maximal activity concentration (AC50) under setting [2] is 5.62 µM [rising, single point].

`Cc1cc(NC(=O)CSc2nnnn2-c2ccc(C)c(C)c2)no1`: the AC50 under setting [2] is 10 µM [falling, partial curve].

Take `CC(C)(C)OC(=O)N1CCC(c2c(C(=O)N3CCN(c4ncccn4)CC3)cnn2-c2ccc(F)cc2F)CC1`: the concentration at half-maximal activity (AC50) under setting [2] was 0.00316 µM [falling, full curve, poor fit].

Turning to `Clc1ccc(-c2nnc(CSc3nnc(-c4cccs4)n3Cc3ccccc3)o2)cc1`, under setting [2], the AC50 was 3.16 µM [rising, full curve].

With `CCOc1ccc(NC(=O)CCN2CCCCC2)cc1`, under setting [2], the AC50 was 1.26 µM [falling, single point].

For the molecule `COc1cc(NC(=S)NC2CC(C)(C)NC(C)(C)C2)c(OC)cc1Cl`, under setting [2], the AC50 was 35.5 µM [rising, single point].

Consider `O=C(CN1CCCCC1)Nc1scc2c1c(=O)oc1ccccc12`, for which the concentration at half-maximal activity (AC50) under setting [1] was 0.01 µM [rising, full curve, poor fit].

With `Cc1ccc(NC(=O)C2CC(=O)N/C(=N/NC(=O)c3ccc(C)cc3)S2)cc1` (configuration not stated), the half-maximal activity concentration (AC50) under setting [2] was 22.4 µM [rising, single point].

`C[N+](C)(C)CCCCCC[N+](C)(C)C`: the concentration at half-maximal activity (AC50) by setting is: under setting [1], 0.00562 µM [falling, full curve, poor fit]; under setting [2], 0.00355 µM [falling, full curve, poor fit].

For `Cc1cc2oc(C(=O)Nc3c(C)n(C)n(-c4ccccc4)c3=O)c(C)c2cc1Cl`, the AC50 is 14.1 µM [rising, partial curve, poor fit] under setting [1] and 14.1 µM [rising, single point] under setting [2].

As to `O=C(O)C1Cc2ccccc2CN1S(=O)(=O)/C=C/c1ccccc1` (configuration not stated), under setting [2], the AC50 was 11.2 µM [rising, single point].

For `O=C(COC(=O)c1cccc(NS(=O)(=O)c2ccc(F)c(F)c2)c1)NC(=O)NC1CCCCC1`, the concentration at half-maximal activity (AC50) under setting [2] was 7.94 µM [rising, partial curve, poor fit].

Turning to `CC(C)CC(=O)NC(=S)N(Cc1ccccc1)Cc1ccccc1`, the AC50 under setting [1] was 14.1 µM [rising, single point].

`Cc1ccc(C(=O)Nc2nc(-c3ccccc3)c(-c3ccccc3)o2)cc1`: the AC50 under setting [1] was 35.5 µM [rising, single point] and the half-maximal activity concentration (AC50) under setting [2] is 35.5 µM [rising, partial curve].

As for `COc1ccc(C)cc1NC(=S)N1CCN(c2ccccn2)CC1`, the AC50 under setting [2] was 22.4 µM [rising, single point].

As for `S=c1nc(-c2sccc2OCc2ccc(Cl)cc2Cl)[nH][nH]1`, the concentration at half-maximal activity (AC50) by setting is: under setting [1], 15.8 µM [falling, single point]; under setting [2], 20 µM [falling, partial curve, poor fit].

As for `CC[N+](C)(C)Cc1ccccc1Br`, the AC50 is 0.282 µM [falling, full curve, poor fit] under setting [1] and 0.0708 µM [falling, full curve, poor fit] under setting [2].

As to `CCn1c(SCC(=O)Nc2ccc(N(C)C)cc2)nnc1-c1cccc(C)c1`, the AC50 under setting [1] was 17.8 µM [rising, single point] and the AC50 under setting [2] is 17.8 µM [rising, single point].

Consider `Cc1ccc(C2C3=C(CCCC3=O)N=C3c4ccccc4C(=O)C32)cc1` (configuration not stated), for which the AC50 is, setting by setting: under setting [1], 3.55 µM [rising, partial curve]; under setting [2], 8.91 µM [rising, partial curve].

For the molecule `c1ccc(-c2c3ccccc3nc3[nH]c4ccccc4c23)cc1`, under setting [2], the AC50 was 10 µM [rising, partial curve].

As to `COc1ccccc1CNc1cc(-c2c(C)noc2C)ncn1`, the AC50 under setting [1] was 20 µM [falling, partial curve].

Regarding `CCOc1cccc(NC(=O)C2CCCN(S(=O)(=O)c3ccc(OC)cc3)C2)c1` (configuration not stated), the AC50 under setting [1] is 11.2 µM [rising, partial curve, poor fit] and the concentration at half-maximal activity (AC50) under setting [2] is 25.1 µM [rising, single point].

With `C=C(NC(=O)C(=C)NC(=O)c1csc(C2=N[C@@H]3c4csc(n4)[C@@H]4NC(=O)c5csc(n5)[C@@H]([C@](C)(O)[C@H](C)O)NC(=O)[C@@H]5CSC(=N5)/C(=C/C)NC(=O)[C@@H]([C@H](C)O)NC(=O)c5csc(n5)[C@]3(CC2)NC(=O)[C@@H](C)NC(=O)C(=C)NC(=O)[C@@H](C)NC(=O)[C@@H]([C@@H](C)CC)N[C@H]2C=Cc3c([C@H](C)O)cc(nc3[C@@H]2O)C(=O)O[C@H]4C)n1)C(N)=O`, the AC50 under setting [1] is 7.94 µM [rising, partial curve] and the AC50 under setting [2] is 14.1 µM [falling, single point].

As to `CCOc1ncccc1C(=O)NCc1ccc(OC)c(OC)c1`, the AC50 under setting [2] was 12.6 µM [rising, partial curve, poor fit].

For `Cc1cc(C)c(S(=O)(=O)NCCCn2ccnc2)c(C)c1`, under setting [2], the AC50 is 20 µM [rising, single point].

As for `COc1ccccc1CNC(=O)C1CCN(Cc2nc(-c3cccc(Cl)c3)oc2C)CC1`, the AC50 is, setting by setting: under setting [1], 10 µM [rising, partial curve]; under setting [2], 10 µM [rising, partial curve, poor fit].

In the case of `COC(=O)c1cc(CSc2nnc(-c3ccccc3)c(-c3ccccc3)n2)oc1C`, the AC50 is 11.2 µM [rising, partial curve, poor fit] under setting [1] and 15.8 µM [rising, partial curve] under setting [2].

Consider `CCn1nc(C)c(C(=O)Nc2cc(Oc3cc(C)cc(C)c3)cc([N+](=O)[O-])c2)c1C`, for which the AC50 under setting [2] is 35.5 µM [rising, single point].

Turning to `FC(F)(F)c1cc(-c2ccccc2)nc(NCc2cccs2)n1`, the AC50 reads like this: under setting [1], 11.2 µM [rising, single point]; under setting [2], 22.4 µM [rising, single point].

On to `COc1cccc(Cn2c(=O)c(-c3cccs3)nc3cnc(N4CCNCC4)nc32)c1`, for which the AC50 runs as follows: under setting [1], 15.8 µM [falling, partial curve]; under setting [2], 14.1 µM [falling, partial curve].

As for `CCOC(=O)C1=C(CNCCc2ccc(Cl)cc2)NC(=O)NC1c1ccc2c(c1)OCO2` (configuration not stated), the half-maximal activity concentration (AC50) under setting [2] is 35.5 µM [rising, single point].

Regarding `CCCCCC[C@@H]([C@@H](C)O)n1cnc2c(N)ncnc21`, the AC50 under setting [2] is 28.2 µM [rising, single point].

As for `c1ccc2c(c1)nnn2-c1ncnc2sccc12`, under setting [2], the half-maximal activity concentration (AC50) was 25.1 µM [falling, single point].

For `N#Cc1nc(Cc2ccccc2)oc1NCCc1ccccc1`, the concentration at half-maximal activity (AC50) is, setting by setting: under setting [1], 8.91 µM [rising, partial curve]; under setting [2], 12.6 µM [rising, single point].

Take `COc1ccc(C(Cl)=C(c2ccc(OC)cc2)c2ccc(OC)cc2)cc1`: the AC50 is 3.98 µM [falling, partial curve] and 0.794 nM [falling, full curve, poor fit] under setting [1]; 282 nM [falling, single point] and 7.94 µM [rising, partial curve] under setting [2].

Consider `CC1CCc2cc(F)ccc2N1C(=O)CSc1nnc2c(n1)[nH]c1ccc(F)cc12` (configuration not stated), for which the half-maximal activity concentration (AC50) reads like this: under setting [1], 15.8 µM [falling, single point]; under setting [2], 0.0316 µM [falling, single point].

Regarding `O=C(Oc1c(-c2ccccc2Cl)oc2ccccc2c1=O)c1ccc(Cl)cc1`, the AC50 was 35.5 µM [rising, single point] under setting [1] and 35.5 µM [rising, single point] under setting [2].

In the case of `Cc1oncc1C(=O)Nc1ccc(C(F)(F)F)cc1`, the AC50 is 10 nM [falling, full curve, poor fit] and 3.98 nM [falling, full curve, poor fit] under setting [1]; 0.00316 µM [falling, full curve, poor fit] under setting [2].

For `Cc1cccc(Cn2c(NCC(C)O)nc3c2c(=O)n(C)c(=O)n3C)c1` (configuration not stated), the half-maximal activity concentration (AC50) under setting [2] was 22.4 µM [rising, single point].

For `Cc1ccc(C2=[N+]([O-])C(C)(C)N(O)C2(C)C)cc1`, the AC50 under setting [2] was 12.6 µM [falling, single point].

`NC(C(=O)N[C@@H]1C(=O)N2C(C(=O)O)=C(Cl)CS[C@H]12)c1ccccc1` (some centres not stated): the AC50 under setting [2] was 0.158 µM [rising, full curve, poor fit].

For the molecule `CCOC(=O)c1c(N)sc2c1CCN(Cc1ccccc1)C2`, under setting [2], the AC50 is 11.2 µM [rising, partial curve, poor fit].

As for `COc1ccccc1NS(=O)(=O)c1cc(NC(=O)C2CC2)ccc1N1CCOCC1`, under setting [2], the half-maximal activity concentration (AC50) was 8.91 µM [rising, partial curve, poor fit].

`O=C(c1ccc(NC(=S)Nc2ccc(F)cc2F)cc1)N1CCOCC1`: the AC50 under setting [2] is 2.82 µM [falling, partial curve, poor fit].

`Fc1cccc2sc(Nc3nc4ccccc4s3)nc12`: the half-maximal activity concentration (AC50) under setting [1] was 2 µM [rising, single point] and the half-maximal activity concentration (AC50) under setting [2] was 11.2 µM [rising, partial curve].

For `COc1ccc2c(-c3ccccc3)cc(SCC(=O)N(C)C3CCS(=O)(=O)C3)nc2c1` (configuration not stated), the concentration at half-maximal activity (AC50) under setting [2] was 12.6 µM [rising, partial curve].

On to `O=C(N/N=C/C(Br)=C/c1ccccc1)c1cccs1`, for which the AC50 is 1.78 µM [falling, partial curve] under setting [1] and 1.78 µM [falling, partial curve] under setting [2].

For the molecule `CCCCCCNC(=O)Nc1ccccc1`, the AC50 under setting [1] was 17.8 µM [rising, partial curve, poor fit].

`CN(C)C(CNC(=O)c1ccc(S(=O)(=O)N(C)C)cc1)Cc1ccccc1` (configuration not stated): under setting [2], the concentration at half-maximal activity (AC50) is 1.78 µM [falling, partial curve].

As to `Cn1ncc2c(NNC(=O)c3ccc(Cl)c(Cl)c3)ncnc21`, the concentration at half-maximal activity (AC50) under setting [2] is 10 µM [rising, partial curve].

The record behind these values is PubChem BioAssay AID1487 (National Center for Advancing Translational Sciences (NCATS), 2009).
